In PMC4024641:
These are yes or no findings as the source states them, for the method shown. In cells and extracts the contact can be indirect. These calls come from enrichment with a bait or labelling near it, and not all partners need be listed. Where a sequence is shown, tags or fusion partners need not be part of it.

By UniProt entry, the sequences of proteins in these tests, tags left out.
UniProt O74424: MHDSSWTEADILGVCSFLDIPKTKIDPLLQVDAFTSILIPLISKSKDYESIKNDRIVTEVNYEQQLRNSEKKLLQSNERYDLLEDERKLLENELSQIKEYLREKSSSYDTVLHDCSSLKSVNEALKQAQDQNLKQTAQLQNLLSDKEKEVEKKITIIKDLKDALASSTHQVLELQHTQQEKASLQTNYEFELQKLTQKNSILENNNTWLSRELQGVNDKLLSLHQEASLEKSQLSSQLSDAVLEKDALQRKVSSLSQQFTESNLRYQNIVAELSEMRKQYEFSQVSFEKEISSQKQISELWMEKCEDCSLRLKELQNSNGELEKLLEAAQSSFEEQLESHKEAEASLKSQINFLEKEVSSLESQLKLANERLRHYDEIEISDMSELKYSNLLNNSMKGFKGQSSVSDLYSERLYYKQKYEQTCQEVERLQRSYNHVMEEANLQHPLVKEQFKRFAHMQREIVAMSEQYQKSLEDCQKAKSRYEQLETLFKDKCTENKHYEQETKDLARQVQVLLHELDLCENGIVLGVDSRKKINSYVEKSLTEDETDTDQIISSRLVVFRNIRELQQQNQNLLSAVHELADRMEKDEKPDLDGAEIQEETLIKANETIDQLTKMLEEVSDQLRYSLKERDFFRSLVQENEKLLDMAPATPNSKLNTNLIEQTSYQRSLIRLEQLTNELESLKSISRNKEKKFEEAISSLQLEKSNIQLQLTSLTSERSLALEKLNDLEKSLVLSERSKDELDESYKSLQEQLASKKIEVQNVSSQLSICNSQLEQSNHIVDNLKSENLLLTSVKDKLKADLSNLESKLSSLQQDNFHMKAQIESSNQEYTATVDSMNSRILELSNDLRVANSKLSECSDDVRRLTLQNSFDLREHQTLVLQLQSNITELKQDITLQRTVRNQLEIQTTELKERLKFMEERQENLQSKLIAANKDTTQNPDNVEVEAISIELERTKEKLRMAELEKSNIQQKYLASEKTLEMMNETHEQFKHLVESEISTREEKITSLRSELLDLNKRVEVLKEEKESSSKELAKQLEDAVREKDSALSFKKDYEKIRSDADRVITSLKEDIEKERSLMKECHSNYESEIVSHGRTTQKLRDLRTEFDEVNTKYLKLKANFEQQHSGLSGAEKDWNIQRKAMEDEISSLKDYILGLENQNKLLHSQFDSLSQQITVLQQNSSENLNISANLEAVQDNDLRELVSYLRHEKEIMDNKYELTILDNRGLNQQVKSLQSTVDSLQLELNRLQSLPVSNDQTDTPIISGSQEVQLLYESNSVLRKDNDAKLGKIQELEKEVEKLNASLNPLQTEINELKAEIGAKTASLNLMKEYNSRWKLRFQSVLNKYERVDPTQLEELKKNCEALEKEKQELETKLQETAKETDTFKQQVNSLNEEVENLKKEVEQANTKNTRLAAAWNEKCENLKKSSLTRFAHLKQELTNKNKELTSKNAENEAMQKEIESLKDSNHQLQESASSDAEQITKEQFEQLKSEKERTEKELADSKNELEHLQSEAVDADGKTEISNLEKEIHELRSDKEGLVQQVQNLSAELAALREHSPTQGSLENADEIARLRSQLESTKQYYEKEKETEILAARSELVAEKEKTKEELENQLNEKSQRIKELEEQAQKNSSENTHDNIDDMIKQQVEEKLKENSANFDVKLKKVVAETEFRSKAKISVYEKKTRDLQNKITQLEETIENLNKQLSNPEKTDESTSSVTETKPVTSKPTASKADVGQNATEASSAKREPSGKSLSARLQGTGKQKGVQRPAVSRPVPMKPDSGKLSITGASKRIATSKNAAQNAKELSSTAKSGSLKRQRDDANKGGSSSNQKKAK

T1: Rmn1-13×myc (S. pombe) (UniProt Q9USP9)
T1 sequence: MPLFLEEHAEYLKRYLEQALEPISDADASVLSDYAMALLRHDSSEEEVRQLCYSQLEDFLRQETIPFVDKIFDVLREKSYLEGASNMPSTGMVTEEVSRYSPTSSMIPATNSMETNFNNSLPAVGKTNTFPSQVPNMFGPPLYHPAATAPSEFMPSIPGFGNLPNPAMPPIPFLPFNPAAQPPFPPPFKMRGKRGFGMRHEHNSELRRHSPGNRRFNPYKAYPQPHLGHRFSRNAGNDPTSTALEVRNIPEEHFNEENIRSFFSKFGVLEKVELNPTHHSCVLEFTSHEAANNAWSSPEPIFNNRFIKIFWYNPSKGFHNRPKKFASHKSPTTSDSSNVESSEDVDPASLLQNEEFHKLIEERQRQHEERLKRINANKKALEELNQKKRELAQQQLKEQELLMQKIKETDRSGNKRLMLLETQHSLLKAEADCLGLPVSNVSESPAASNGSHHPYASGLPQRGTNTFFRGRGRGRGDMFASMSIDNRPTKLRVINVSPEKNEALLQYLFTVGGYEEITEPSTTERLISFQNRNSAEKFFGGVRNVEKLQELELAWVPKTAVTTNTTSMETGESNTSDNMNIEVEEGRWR

T2: Red5-3×FLAG (S. pombe), O74823
T2 chain: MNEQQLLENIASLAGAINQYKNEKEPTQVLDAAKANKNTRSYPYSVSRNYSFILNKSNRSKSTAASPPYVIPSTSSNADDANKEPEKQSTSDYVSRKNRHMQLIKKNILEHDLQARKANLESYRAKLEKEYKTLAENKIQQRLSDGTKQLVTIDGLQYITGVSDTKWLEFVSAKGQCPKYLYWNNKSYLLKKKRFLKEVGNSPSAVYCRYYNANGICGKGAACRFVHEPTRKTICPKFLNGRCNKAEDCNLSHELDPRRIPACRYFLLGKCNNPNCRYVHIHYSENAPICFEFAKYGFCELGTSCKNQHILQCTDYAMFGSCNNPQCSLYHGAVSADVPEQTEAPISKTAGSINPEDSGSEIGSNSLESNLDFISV

T3: Red1-3×FLAG (S. pombe), Q9UTR8
T3 chain: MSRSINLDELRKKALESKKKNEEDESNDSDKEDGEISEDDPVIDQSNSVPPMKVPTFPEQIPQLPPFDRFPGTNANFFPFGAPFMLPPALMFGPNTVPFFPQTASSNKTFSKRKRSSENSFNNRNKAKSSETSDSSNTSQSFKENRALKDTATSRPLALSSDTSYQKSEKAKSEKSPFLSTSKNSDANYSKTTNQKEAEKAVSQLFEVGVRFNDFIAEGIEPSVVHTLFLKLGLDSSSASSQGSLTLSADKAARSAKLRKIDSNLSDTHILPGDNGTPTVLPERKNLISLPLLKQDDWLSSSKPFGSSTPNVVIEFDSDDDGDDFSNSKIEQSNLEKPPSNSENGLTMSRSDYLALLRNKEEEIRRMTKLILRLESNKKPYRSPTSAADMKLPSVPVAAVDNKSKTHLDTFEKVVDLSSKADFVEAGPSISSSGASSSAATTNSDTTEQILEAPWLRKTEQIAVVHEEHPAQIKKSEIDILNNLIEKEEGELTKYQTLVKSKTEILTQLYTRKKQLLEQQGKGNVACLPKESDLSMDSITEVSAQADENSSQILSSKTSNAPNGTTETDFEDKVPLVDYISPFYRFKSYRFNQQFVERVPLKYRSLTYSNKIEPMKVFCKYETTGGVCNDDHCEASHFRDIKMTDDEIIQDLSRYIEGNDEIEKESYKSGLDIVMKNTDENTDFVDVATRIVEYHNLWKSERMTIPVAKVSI


Tests used:
Assay in all cases: affinity purification with mass spectrometry; 3×FLAG- or 13×myc-tagged bait purified from S. pombe cell extract on α-FLAG (M2) or α-myc (9E10) antibody cross-linked to Protein G Dynabeads, 4°C for 3 h, IP buffer (20 mM HEPES pH 7.5, 100 mM NaCl, 5 mM MgCl2, 1 mM EDTA, 10% glycerol, 0.25% Triton X-100, 0.5 mM DTT); LC-MS/MS; Red1-3×FLAG also from iss10Δ, rmn1Δ and Mtl1 knockdown cells
Rmn1-13×myc (S. pombe) = biological target: T1, Rmn1-13×myc (S. pombe)
[1] = biological target: T2, Red5-3×FLAG (S. pombe), O74823; conditions: remark: other sources report otherwise
[2] = biological target: T3, Red1-3×FLAG (S. pombe), Q9UTR8; conditions: remark: other sources report otherwise

Row | binding [1] | Molecule | also measured
1 |  | Nup211 (from UniProt O74424 1-1837) | binding (Rmn1-13×myc (S. pombe)): binds
2 | binds | Red1-3×FLAG, Q9UTR8 1-712 (protein) MSRSINLDELRKKALESKKKNEEDESNDSDKEDGEISEDDPVIDQSNSVPPMKVPTFPEQIPQLPPFDRFPGTNANFFPFGAPFMLPPALMFGPNTVPFFPQTASSNKTFSKRKRSSENSFNNRNKAKSSETSDSSNTSQSFKENRALKDTATSRPLALSSDTSYQKSEKAKSEKSPFLSTSKNSDANYSKTTNQKEAEKAVSQLFEVGVRFNDFIAEGIEPSVVHTLFLKLGLDSSSASSQGSLTLSADKAARSAKLRKIDSNLSDTHILPGDNGTPTVLPERKNLISLPLLKQDDWLSSSKPFGSSTPNVVIEFDSDDDGDDFSNSKIEQSNLEKPPSNSENGLTMSRSDYLALLRNKEEEIRRMTKLILRLESNKKPYRSPTSAADMKLPSVPVAAVDNKSKTHLDTFEKVVDLSSKADFVEAGPSISSSGASSSAATTNSDTTEQILEAPWLRKTEQIAVVHEEHPAQIKKSEIDILNNLIEKEEGELTKYQTLVKSKTEILTQLYTRKKQLLEQQGKGNVACLPKESDLSMDSITEVSAQADENSSQILSSKTSNAPNGTTETDFEDKVPLVDYISPFYRFKSYRFNQQFVERVPLKYRSLTYSNKIEPMKVFCKYETTGGVCNDDHCEASHFRDIKMTDDEIIQDLSRYIEGNDEIEKESYKSGLDIVMKNTDENTDFVDVATRIVEYHNLWKSERMTIPVAKVSI | 
3 |  | Red5-3×FLAG, O74823 1-376 (protein) MNEQQLLENIASLAGAINQYKNEKEPTQVLDAAKANKNTRSYPYSVSRNYSFILNKSNRSKSTAASPPYVIPSTSSNADDANKEPEKQSTSDYVSRKNRHMQLIKKNILEHDLQARKANLESYRAKLEKEYKTLAENKIQQRLSDGTKQLVTIDGLQYITGVSDTKWLEFVSAKGQCPKYLYWNNKSYLLKKKRFLKEVGNSPSAVYCRYYNANGICGKGAACRFVHEPTRKTICPKFLNGRCNKAEDCNLSHELDPRRIPACRYFLLGKCNNPNCRYVHIHYSENAPICFEFAKYGFCELGTSCKNQHILQCTDYAMFGSCNNPQCSLYHGAVSADVPEQTEAPISKTAGSINPEDSGSEIGSNSLESNLDFISV | binding [2]: binds
4 | binds | Mmi1, O74958 1-488 (protein) MSNTNFSTSRSSKSIPELPNLEALRSLWPPPSLNESGDTRSVWTTHTGEPVASSVLSTSGSNNFSSPLKRPAPESHDAPIGRRLMVDDPRLIKHGKYDFSRHCTDYGHSYEWPYFRSLRRESMLYHTSGSYPESQPPYSSYSTDAPHYYHAGSESSAYYDSRSRLHGIQPPPKRRTLSPPPRRLADPVVVGSSRYVEEEVYRRPPYTLASEVPSSASAYQAGYSSYPVRSSPQLSHEDTRHGIASSGSTRYPFVPANTRASHSPSLLEPYAHSLPSSVAPVGAYPEKSSYLLSNSSNDSASRKEKPKARASTPPPLNFSRASEHRNEKGERISMINPRVVLDENGISHRSRYFIMLCDNETAIAHAKKTSIWAVKKDSSKRISDAYKKASVYFIFVAQQTYNALGYAQVVSDLNSTELPFWSDSSHAGGVRIKWIKTCNLFSAEISEIVSHMDHGSEARDGMEMMYDEGSRLCTLINYAIMKRIGRDR | 
